Results on 28 molecules are retold here after patent publication US20190127480A1.

Chains of the proteins cited; added tags and fusions are not shown. Lines headed by an entry give the natural chain unless they say otherwise; changes in a name come on top.
UniProt Q04609: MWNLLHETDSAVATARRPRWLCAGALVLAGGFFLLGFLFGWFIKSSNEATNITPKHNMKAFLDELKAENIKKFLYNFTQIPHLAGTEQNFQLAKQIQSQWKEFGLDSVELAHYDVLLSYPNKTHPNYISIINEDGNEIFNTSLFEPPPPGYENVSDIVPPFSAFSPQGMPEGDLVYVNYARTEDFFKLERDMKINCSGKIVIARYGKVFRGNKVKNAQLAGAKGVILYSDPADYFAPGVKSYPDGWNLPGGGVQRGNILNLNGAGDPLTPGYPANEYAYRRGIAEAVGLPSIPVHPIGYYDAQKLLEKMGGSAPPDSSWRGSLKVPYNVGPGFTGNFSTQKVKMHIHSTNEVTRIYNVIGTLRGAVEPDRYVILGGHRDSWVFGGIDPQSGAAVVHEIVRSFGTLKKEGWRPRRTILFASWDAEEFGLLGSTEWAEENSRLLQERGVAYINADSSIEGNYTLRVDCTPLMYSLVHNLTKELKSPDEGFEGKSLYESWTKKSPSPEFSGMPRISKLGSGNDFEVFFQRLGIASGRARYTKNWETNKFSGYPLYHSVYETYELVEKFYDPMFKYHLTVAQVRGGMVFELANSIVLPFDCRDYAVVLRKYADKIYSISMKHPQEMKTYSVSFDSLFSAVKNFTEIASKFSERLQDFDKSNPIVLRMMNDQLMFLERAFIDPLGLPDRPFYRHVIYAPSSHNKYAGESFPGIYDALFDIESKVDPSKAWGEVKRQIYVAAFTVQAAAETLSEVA
UniProt P07766: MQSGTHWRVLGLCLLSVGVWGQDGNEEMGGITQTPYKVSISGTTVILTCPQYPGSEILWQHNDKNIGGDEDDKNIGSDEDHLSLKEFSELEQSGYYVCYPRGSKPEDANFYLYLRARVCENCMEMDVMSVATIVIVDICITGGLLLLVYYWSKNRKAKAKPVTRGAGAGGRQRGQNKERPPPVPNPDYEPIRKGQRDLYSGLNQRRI

Positions count from the first letter of the chain named. Results are given in words; binding and its absence hold for the method and conditions named. Some binding calls cover weakened binding; strength is not graded here.

The chains are these.
B1: BSPSMA/CD3-800 (bispecific antibody, IgG4, V domains shown)
VH 1: QVQLVESGGGVVQPGRSLRLSCAASGFTFSSYGMHWVRQAPGKGLEWVAVISYAGNNKYYADSVKGRFTVSRDNSKKTLYLQMNSLRSEDTAVYYCAKDSYYDFLTDPDVLDIWGQGTMVTVSS
VH 2: EVQLVESGGGLVQPGRSLRLSCAASGFTFDDYSMHWVRQAPGKGLEWVSGISWNSGSIGYADSVKGRFTISRDNAKNSLYLQMNSLRAEDTALYYCAKYGSGYGKFYHYGLDVWGQGTTVTVSS
VL: DIQMTQSPSSLSASVGDSVTITCRASQSINNYLNWYQQKPGKAPKLLIYTASSLLSGVPSRFSGSGSGTDFTLTISGLHPEDFATYFCQQSFSTPPITFGQGTRLDIK
B2: BSPSMA/CD3-1900 (bispecific antibody, IgG4, V domains shown)
VH 1: B1 VH 1
VH 2: B1 VH 2 with Y99D, L111M
VL: B1 VL
B3: BSPSMA/CD3-1400 (bispecific antibody, IgG4, V domains shown)
VH 1: B1 VH 1
VH 2: B1 VH 2 with L111M
VL: B1 VL
B4: BSPSMA/CD3-1100 (bispecific antibody, IgG4, V domains shown)
VH 1: B1 VH 1
VH 2: B1 VH 2 with I58K, L111M
VL: B1 VL
B5: BSPSMA/CD3-1300 (bispecific antibody, IgG4, V domains shown)
VH 1: B1 VH 1
VH 2: B1 VH 2 with H108Y
VL: B1 VL
B6: BSPSMA/CD3-1700 (bispecific antibody, IgG4, V domains shown)
VH 1: B1 VH 1
VH 2: B1 VH 2 with I58K, H108Y, L111M
VL: B1 VL
B7: BSPSMA/CD3-1000 (bispecific antibody, IgG4, V domains shown)
VH 1: B1 VH 1
VH 2: B1 VH 2 with I58K, H108Y
VL: B1 VL
B8: BSPSMA/CD3-005 (bispecific antibody, IgG4, V domains shown)
VH 1: B1 VH 1
VH 2: B1 VH 2 with H108Y, L111M
VL: B1 VL
B9: BSPSMA/CD3-1600 (bispecific antibody, IgG4, V domains shown)
VH 1: B1 VH 1
VH 2: B1 VH 2 with I58K, Y99D, L111M
VL: B1 VL
B10: BSPSMA/CD3-1200 (bispecific antibody, IgG4, V domains shown)
VH 1: B1 VH 1
VH 2: B1 VH 2 with Y99D
VL: B1 VL
B11: BSPSMA/CD3-2100 (bispecific antibody, IgG4, V domains shown)
VH 1: B1 VH 1
VH 2: B1 VH 2 with I58K, Y99D, H108Y, L111M
VL: B1 VL
B12: BSPSMA/CD3-1500 (bispecific antibody, IgG4, V domains shown)
VH 1: B1 VH 1
VH 2: B1 VH 2 with I58K, Y99D, H108Y
VL: B1 VL
B13: BSPSMA/CD3-900 (bispecific antibody, IgG4, V domains shown)
VH 1: B1 VH 1
VH 2: B1 VH 2 with I58K, Y99D
VL: B1 VL
B14: BSPSMA/CD3-003 (bispecific antibody, IgG4, V domains shown)
VH 1: B1 VH 1
VH 2: B1 VH 2 with I58K
VL: B1 VL
B15: BSPSMA/CD3-200 (bispecific antibody, IgG4, V domains shown)
VH 1: B1 VH 1
VH 2: B1 VH 2 with S33A, Y99D, K105Y, H108Y, L111M
VL: B1 VL
B16: BSPSMA/CD3-1800 (bispecific antibody, IgG4, V domains shown)
VH 1: B1 VH 1
VH 2: B1 VH 2 with Y99D, H108Y
VL: B1 VL
B17: BSPSMA/CD3-300 (bispecific antibody, IgG4, V domains shown)
VH 1: B1 VH 1
VH 2: B1 VH 2 with Y99D, K105Y, H108Y, L111M
VL: B1 VL
B18: BSPSMA/CD3-400 (bispecific antibody, IgG4, V domains shown)
VH 1: B1 VH 1
VH 2: B1 VH 2 with S33A, Y99D, H108Y, L111M
VL: B1 VL
B19: BSPSMA/CD3-004 (bispecific antibody, IgG4, V domains shown)
VH 1: B1 VH 1
VH 2: B1 VH 2 with Y99D, H108Y, L111M
VL: B1 VL
B20: H1H11805P2 (antibody, human IgG1, V domains shown)
VH: EVQLVESGGGLVQPGGSLRLSCVVSGFTFNNYWMSWVRQAPGKGLEWVANIKKDGSEKYYVDSVKGRFTISRDNAKNSLYLQMNSLRAEDTAVYYCARDIMATIIDWGQGTLVTVSS
VL: B1 VL
B21: H1H11836P2 (antibody, human IgG1, V domains shown)
VH: QVQLVESGGGVVQPGRSLRLSCAASGFTFRSYGMHWVRQAPGKGLEWVAFISYDESNKHQADSVKGRFTISRDNSKNTLYLQMNSLRAEDTAVYFCAKDQYYDFLTAYDTLDYWGQGTLVTVSS
VL: B1 VL
B22: H1H11808P2 (antibody, human IgG1, V domains shown)
VH: QVQLVESGGGVVQPGRSLRLSCAASGFPFNSYGMHWVRQAPGKGLEWVAVISYDGSNRYYADSVKGRFTISRDNSKYTLDLHVSSLTTDDTAVYYCARDRRYGKWEQLYPDYLGQGTLVTVSS
VL: B1 VL
B23: H1H11835P2 (antibody, human IgG1, V domains shown)
VH: EVQLVESGGGLVQSGGSLRLSCEASGFTFSNYWMTWIRQGPGKGLEWVANIKPDGTENYYVDSVKGRFTISRDNARNSLYLQMTSLKAEDTAVYYCGRMIQFVINIWGQGTLVTVSS
VL: B1 VL
B24: H1H11800P2 (antibody, human IgG1, V domains shown)
VH: QVQLVESGGGVVQPGRSLRLSCAASGFTFSSYGMHWVRQAPGKGLEWVAVISYAGNNKYYVDSVKGRFTISRDNSKNTLYLQMNSLRAEDTAVYYCAKDPYYDFLTGSDYFDYWGQGTLVTVSS
VL: B1 VL
B25: H1H11792P2 (antibody, human IgG1, V domains shown)
VH: QVQLVESGGGVVQPGRSLRLSCAASGFTFSSYGMHWVRQPPGKGLEWVAIMSYDGSNKYYADSVKGRFTISRDNSKNTLYLQMNSLRVEDTAVYYCAKDQYYDFLTFDYTLDYWGQGTLVTVSS
VL: B1 VL
B26: H1H11797P2 (antibody, human IgG1, V domains shown)
VH: QVQLVESGGGVVQPGRSLRLSCAASGFSFSGYGMHWVRQAPGKGLEWVAVTWYDGSNKYYADSVKGRFTISRDNSKNTLYLQMNSLRAEDTAVYYCARDGNWGGPYWYFDLWGRGTLVTVSS
VL: B1 VL
B27: H1H11803P2 (antibody, human IgG1, V domains shown)
VH: QVQLVESGGGVVQPGRSLRLSCAASGFTFSSYGMHWVRQAPGKGLEWVAVIWYDGNNKYYADSVKGRFTISRDNSKKTLYLQMTSLRAEDTAVYYCARDQYYDILTADNTLDYWGQGTLVTVSS
VL: B1 VL
B28: H1H11837P2 (antibody, human IgG1, V domains shown)
VH: QVQLVESGGGVVQPGRSLRLSCAASGFTFSSYGMHWVRQAPGKGLEWVTFISYDGNNKYYSDSVKGRFAISRDNSKNTLYLQMNSLRAEDTSVYFCAKDQYYDFLTDFGVFDYWGQGTLVTVSS
VL: B1 VL

The first assay concerns the target soluble heterodimeric hCD3ε/δ.mFc protein (human). Kind of assay: SPR, 37 C, antigen-capture format. For orientation: Surface plasmon resonance follows binding to a sensor surface in real time, without labels.
In the case of B1, the binding entry is “binds”.

For B2, the binding result is reported as “binds”.

For the molecule B3, the binding result is “binds”.

Regarding B4, the binding result is “binds”.

Regarding B5, the binding result is reported as “binds”.

As for B6, the binding entry is given as “binds”.

Regarding B7, the binding result is “binds”.

With B8, the binding result was “binds”.

B9: the binding entry is listed as “binds”.

For B10, the binding result was “binds”.

Turning to B11, the binding entry was “binds”.

Consider B12, for which the binding result is reported as “binds”.

Take B13: the binding result is reported as “binds”.

For the next assay, the target named is human PSMA on PSMA-expressing cells (human) (UniProt Q04609). Kind of assay: FACS on PSMA-expressing cells.
For B14, the binding result is recorded as “binds”.

Turning to B1, the binding result is “binds”.

On to B2, for which the binding result is on record as “binds”.

Consider B15, for which the binding entry is “binds”.

With B3, the binding entry is reported as “binds”.

As for B16, the binding result is “binds”.

Consider B4, for which the binding entry is “binds”.

On to B5, for which the binding entry is given as “binds”.

As for B6, the binding entry is recorded as “binds”.

Turning to B7, the binding result is “binds”.

In the case of B8, the binding entry is “binds”.

On to B9, for which the binding entry was “binds”.

Regarding B10, the binding result is “binds”.

Take B11: the binding entry was “binds”.

B12: the binding entry is recorded as “binds”.

With B17, the binding entry is recorded as “binds”.

B18: the binding result is recorded as “binds”.

As for B13, the binding entry is reported as “binds”.

B19: the binding result is recorded as “binds”.

Another assay addresses human CD3 on CD3-expressing cells (Jurkat, human T cells) (human) (UniProt P07766). Kind of assay: FACS / SPR, as summed up in Example 7.
Take B19: the binding result is given as “binds”.

In a further assay the target is human PSMA expressed with an N-terminal hexahistidine tag (6h.hPSMA, R&D) (human) (UniProt Q04609). The assay can be described thus: SPR, 37 C, antibody-capture format.
For the molecule B20, the binding entry is recorded as “binds”.

On to B21, for which the binding result was “binds”.

For B22, the binding entry was “binds”.

Consider B23, for which the binding entry is recorded as “binds”.

Regarding B24, the binding entry is on record as “binds”.

For the molecule B25, the binding entry was “binds”.

For the molecule B26, the binding result is “binds”.

In the case of B27, the binding result is recorded as “binds”.

Regarding B28, the binding entry is recorded as “binds”.

A further assay has as its target human CD3 on CD3-expressing cells (Jurkat, human T cells) (human) (UniProt P07766). The assay can be described thus: FACS on Jurkat cells.
For B19, the binding entry is on record as “binds”.
